Experimental data published in article PMC11022558.
These are yes or no findings as the source states them, for the method shown. Binding seen in cells or lysates may run through a third protein. A yes stands for co-enrichment or nearness to the bait. Other partners may have been found.

Target: Histone acetyltransferase Sas3 (something about silencing 3), FLAG-tagged (Aspergillus fumigatus)
Test: affinity purification with mass spectrometry; Sas3-FLAG captured on anti-FLAG M2 agarose beads from 5 mg total protein of mycelium of the Sas3-FLAG strain; lysis buffer 10 mM Tris-HCl pH 7.5, 150 mM NaCl, 0.5 mM EDTA, 1 mM DTT, 0.01% Triton X-100, 1 mM PMSF, protease inhibitors; LC-MS/MS

Binder | binding
Protein kinase C PkcA (protein, UniProt Q4WVG0 1-1106) MDGDDLIASVYRKIEREKALITAASNMRQSTDNPLVQQRVDANIRDGRKNIAYLEEKMRELQLRQMKQEGASPTDKRLPPNPDGSAPVPPPKDYAPGYSGHEREYGDASGAYPHGGAGTMPSGAPFADPRPFAPVPKARPNYTKLDLIKYDTPYLGPKIQLMLSQLEFKLSVEKQYKAGIEKMVRLYQDEGDRKSRQDAEGRRIESNQKIQLLKQALKRYEDLHVDIESAEAPDDESLSTPNLRKPLTGLLTLRIHAVEDVDHAASSRFSRGPETFVVVKVEDAIKARTKATRTDKWQDEPFNIEIDKANEIELTVYDKSGDRPTPIGMLWVRISDIAEEMRRKKIESEFNASGWVSADKMEHGAAHGRQDAGGAPGSSNRPPSGGHSGGPGQGYAGGAPGGASAGPVLIDSWFALEPVGRIHLTLSFAKQLKDRRPFDIGLNRQGAVRQKKEEVHEKQGHKFVTQQFYNIMRCALCGDFLKYAAGMQCADCKYTCHRKCYPKVVTKCISKANYETDPDEEKINHRIPHRFEGFSNISANWCCHCGYLLPFGRKSAKRCTECGLTCHAQCTHLVPDFCGMSMEAANQILETLIRAKNHNKSASVSSGLSGRTLRPGGPPQAPQDNVALAYPQKPVEGAYGAPQRQPSAEAISAATNTYIPPQSPTAAQRQHIPPRTSSSQSPAAAAAAAAAAATGLRTPQQASDPNRPVQPPPSSHAHYDPAAYASYQQAIPPQAMQKMGAPYGMPQQQQQQAVAPMQQQVAVKEEIPPQQPKVRIGLDHFNFLAVLGKGNFGKVMLAETKSTKKLYAIKVLKKEFIIENDEVESTKSEKRVFLIANKERHPFLLNLHACFQTETRVYFVMEYISGGDLMLHIQRGQFGLKRAQFYAAEVLLALKYFHENGVIYRDLKLDNILLTLDGHIKIADYGLCKENMWYGSTTSTFCGTPEFMAPEILLDKKYGRAVDWWAFGVLIYQMLLQQSPFRGEDEDEIYDAILADEPLYPIHMPRDSVSILQKLLTREPELRLGSGPTDAQEVMSHAFFRNINWDDIYHKRVPPPFLPTISSPTDTSNFDQEFTSVTPVLTPVQSVLSQAMQEEFRGFSYTADFA | binds
NsdD, sexual development transcription factor (protein, UniProt Q4WYQ4 1-493) MGSLEATHRQRDHLPTISFFTKDGSGYTSRNSTVSSPTPLVSPTTMYPSQPSPYSYQPSAASAPPQPGYISPPESRRALEEEKEKQLQPQRQSLPSIHEALRNDSPLPYPAPPTSGPLPQAHPHPPHALVGRSAGDGPAGPPNPFSNGAPAGPYMREPAYSQLQTEASRSSLASITTQESRNPSLQSLNSSKSPTHSAKTGLTSIAGSQTGSGYEYSAPTSAGSIASPNGYTAYSQPFTFQSQPPPNAPTYPLAHHDTRPYAATPWKPGAPEPPRVEELKNGLAGRPAVPVQPQGDSAKRHLDIYEVETSLNEIVEVSTRTLDFSRHYATRAHQTQRSGPMLGTLPPLHEIEDMINLQRRNQDALMRLRTAVLNQEHALAEQMAQRKAFSAGGVHDSDHMAMYQEEFKGSGGFAGPDTKKRRGKAAPPGRCHSCNRAETPEWRRGPDGARTLCNACGLHYAKLTRKMGASKAASLGSNLKPKAALDPTPPGTR | binds
